The text below walks through data of publication PMC11430345.

Results are given in words; binding and its absence hold for the method and conditions named. Some entries that bind do so weakly or less than the wild type.

The target of the experiment is GABA(A) receptor-associated protein, GABARAP (human (endogenous in H1792 and UW-lung-16)), O95166. In words: SDS-PAGE without reducing agent and without heating, immunoblot; lysates of cells treated with AM-101 (3 uM, time course to 72 h; Nix also by dose) or radiation; beta-mercaptoethanol left out of the sample buffer, samples not heated; 4-15% gradient gel; monomer and dimer bands detected with GABARAP or Nix antibody. As to conditions: remark: other sources report otherwise.

B1: GABA(A) receptor-associated protein, GABARAP, O95166 1-117 (protein)
chain: MKFVYKEEHPFEKRRSEGEKIRKKYPDRVPVIVEKAPKARIGDLDKKKYLVPSDLTVGQFYFLIRKRIHLRAEDALFFFVNNVIPPTSATMGQLYQEHHEEDFFLYIAYSDESVYGL
B1: the binding entry is on record as “binds”.
